Test results as given in US6350580.

By UniProt entry, the sequences of proteins in these tests, tags left out. Where a name states a change or a piece, a line headed by the entry shows the natural chain unless it says otherwise.
UniProt O93634: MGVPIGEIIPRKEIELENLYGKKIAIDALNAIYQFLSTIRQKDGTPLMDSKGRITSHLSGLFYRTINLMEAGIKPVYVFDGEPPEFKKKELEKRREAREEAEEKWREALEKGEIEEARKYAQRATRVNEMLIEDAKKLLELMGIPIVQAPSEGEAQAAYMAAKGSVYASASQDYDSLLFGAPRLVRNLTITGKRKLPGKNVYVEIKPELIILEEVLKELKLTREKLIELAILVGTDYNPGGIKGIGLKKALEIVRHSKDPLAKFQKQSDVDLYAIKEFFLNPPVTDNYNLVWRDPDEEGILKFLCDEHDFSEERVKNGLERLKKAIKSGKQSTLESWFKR

Molecular target: Pfu FEN-1 (CBP-tagged) (Pyrococcus furiosus) (UniProt O93634)
Test: enzyme reaction in vitro
Settings: control; less cleavage than template 2; 50 C, Mg2+; purified recombinant protein; protein details: N-terminal CBP (pCAL-n-EK, Stratagene); label: 5' 33P; single-stranded DNA

AAAATAAATAAAAAAAATACTGTTGGGAAGGGCGATCGGTGCG [Template 1 (Heltest4)]
activity on this sequence: less active

The comparison behind a weaker result is the experiment's own reference, which may not be listed here.
